Test results: paper PMC10163288
The other results are listed elsewhere or left out.

B1: il2ra_site2_3nfp_normal_mot_HHH_b1_02297_000000279_0001_41_58_H_._HHH_b2_06641_0001_0000200029_0000001_1 (protein)
chain: SSSSDVEEEVRELLEQAERLLEEGNPEEARQLVARAAHLAYEANDFRLFALVNEVLAKIANSSSS
B2: il2ra_site2_2erj_normal_mot_HHH_b2_05804_000000098_0001_44_58_H_._HHH_b1_07085_0001_0000200013_0000001_0 (protein)
chain: SSSSSSEQEAWERVAELLARLLHVDEEEARKLLEEAEELAEEAGDPFLRRYVQFARRAHSSSSSS
B3: il2ra_site2_2erj_normal_mot_af86707857d369f3e1d85dcabc5f9321_0001_000000201_0001_14_29_H_._HHH_b1_08035_af2_0001_0000400016_0000001_0 (protein)
chain: SSSSDELEELLEQARELIEEGDPEEALKVLREAFLLAYELGDHEAAAEIQELVELVIRSESSSSS
B4: il2ra_site1_1z92_sap_29_mot_HHH_b2_01810_000000233_0001_40_54_H_._HHH_b1_05292_af2_0001_0000500027_0000001_0_0001_af2pred_0001_af2pred (protein)
chain: TAVEEDLEEAVEKNDEELLREFIELLLRDAGDPRLVEQLLKILVKRLGLPPEVLERLRKLLEELT
B5: il2ra_site2_3nfp_normal_mot_HHH_b1_00487_000000023_0001_40_53_H_._ems_3hC_866_af2_0001_0000100003_0000001_0 (protein)
chain: SEEEEEKIERLERELREAVERNDKELIKEIIRFIAEFVREFRDDPEAQRLFMLAAEALFLVAQES
B6: il2ra_site1_2b5i_normal_mot_b0b48449b8979d840ab1151e5fe11a36_0001_af2_000000211_0001_16_31_H_._HHH_b1_06023_0001_0000300031_0000001_0_af2pred_dldesign_0_af2pred (protein)
chain: SSSSAELEEALARLRALLAAGRLDEARALAEAFADRVEETDDPEMRKAFNEMLKLLYKAESSSSS
B7: il2ra_site2_3nfp_normal_mot_HHH_b2_07007_000000117_0001_21_37_H_._ems_4hM_3289_0001_af2_0001_0000200014_0000001_0 (protein)
chain: SDEERIEEAVERASKGDEEAAEIVFEAFARALEDPEVRKIWAEVLNKFDSEEIEAVLEVLRELAS
B8: il2ra_site2_2erj_sap_29_mot_38c2a25aa59ed796a93a89c387754b2e_0001_1_000000210_0001_16_32_H_._5f42aca8a0c299d7b7d7982f3e471efe_0001_0001_0000200016_0000001_0_000 … (protein)
chain: SSSDRLHHIYKVANRLMHLLLRGNEEEAQRLIEEAREFAEKAGDEQSVENLEEVWERLEKSSSSS
B9: il2ra_site2_2erj_normal_mot_HHH_b2_07381_000000268_0001_1_20_H_._HEEHE_2349_0001_0000100001_0000001_0_af2pred_0001_af2pred (protein)
chain: SDERLLEIAARAWAERAGVPDVSVEVHNGTLEVEFTGTTERLKEVLEALRFAAEQHGLEFESSSE
B10: il2ra_site2_3nfp_sap_17_mot_HHH_b1_02226_af2_000000060_0001_38_52_H_._HHH_b2_04170_af2_0001_0000400015_0000001_0_0001 (protein)
chain: SSSSEIEEYVEAAIELLKRAVEEGDERAVEALAHLAELSAEDANNPELLEEVQRLVEEFRESSSS
B11: il2ra_site2_2erj_sap_13_mot_HHH_b2_06646_af2_000000081_0001_19_36_H_._HHH_b2_03552_0001_0000100013_0000001_0_0001 (protein)
chain: SSSSSEFEERLEELLQRIEEAIERGNERLALELITEALELLLENRDKEIAARLYRLMRELFSSSS
B12: il2ra_site2_3nfp_sap_25_mot_HHH_b1_04612_000000086_0001_22_38_H_._50caaf2482b7f8739434db268ae8d019_0001_0001_0001500077_0000001_0_0001_af2pred_0001_af2pred (protein)
chain: SSSSDVEEEVKRLIEEAERLLEEGNPEEAKKVLLRAALLASEAGDYELFALIADLLEKILHSSSS
B13: il2ra_site1_3nfp_sap_20_mot_HHH_b1_01874_af2_000000226_0001_43_56_H_._HHH_b1_01564_af2_0001_0000600017_0000001_0_0001_af2pred_0001_af2pred_1_swapped (protein)
chain: SSSSDEELEELEERIRELIERALRHRDQELAKEALKLIEELARLGDPERAKELIQLLADKSSSSS
B14: il2ra_site2_2erj_normal_mot_ems_3hC_1315_af2_000000245_0001_45_63_H_._HHH_b1_03885_af2_0001_0000400020_0000001_0_af2pred_0001_1_af2pred_swapped (protein)
chain: SSSDEEERKRLAEEIVEQLVKEYNLSEEAEKELRLSAKSAVEAGADDTSIRDFLEELARRLSSSS
B15: il2ra_site2_2erj_normal_mot_HHH_b2_06005_000000006_0001_1_15_H_._HHH_b1_08540_af2_0001_0000400022_0000001_0 (protein)
chain: SSSDEEEKELQELLREAERLLEEGNPEEAEKVLRRAFELAYRLGDPRAASLIIELAHLVARSSSS
B16: il2ra_site1_3nfp_normal_mot_HHH_b2_02066_af2_000000034_0001_1_16_H_._56b2e862c5d7020fcb9d25388f5aedda_0001_0001_0000100010_0000001_0_af2pred_0001_af2pred_1 (protein)
chain: TTAERALELAKEDGSLKAVSSVAEAVARLRNDPELEERIRELAEKAKENPEVREELIELAEELLK
B17: il2ra_site1_3nfp_normal_mot_HHH_b2_07488_000000189_0001_1_17_H_._68f07a3d948acdba3ab012a854af3bd0_0001_af2_0002_0000200016_0000001_0 (protein)
chain: NADEFFAEVALESGIPPERVAERLLEAAKRLGIPPEELSERLEELARKLGDPRLQEVAELVEELG
B18: il2ra_site2_2erj_normal_mot_HHH_b2_05633_000000270_0001_38_52_H_._HHH_b1_01885_0001_0000200025_0000001_0 (protein)
chain: SSSSSDEQEIIEEFAELVAEIIEIRDEEEIRELLKRLEELAEEVNSPALRRYLEYLRRDLSSSSS
B19: il2ra_site2_3nfp_sap_7_mot_HHH_b2_05605_000000133_0001_1_20_H_._HHH_b2_05232_af2_0001_0000500021_0000001_0_0001 (protein)
chain: SSSSSEEVERLIEEAERALEEGNPEEAKKILKRAAQLAFELNDPELFFKVAELAYELAQRGSSSS
B20: il2ra_site1_3nfp_normal_mot_HHH_b1_01335_af2_000000105_0001_39_53_H_._HHH_b2_00121_0001_0000300013_0000001_0_af2pred_0001_1_af2pred_swapped (protein)
chain: SSSSSEEEVRRVLKEAKEAAEEGDHRRVDELIREALKLANENRDEEAHRLVRKFLEEAAKNSSSS
B21: il2ra_site2_2erj_sap_13_mot_HHH_b2_03493_000000046_0001_40_57_H_._HHH_b1_00791_0001_0000300020_0000001_0_0001 (protein)
chain: TQEDVHEALREMGVPPEVIELFIELFLLALRHGDPRLREVLEKADQALAEGDPEEAEELLEEVLK
B22: il2ra_site1_2b5i_normal_mot_HHH_b1_02271_000000068_0001_1_16_H_._HHH_b2_05772_0001_0000400026_0000001_0_af2pred_dldesign_0_af2pred (protein)
chain: SSSSSPELKRLVEEALRRAEAAKAAGRVREALEILNAAHKKADEADDEELSDELEAKAKELSSSS
B23: il2ra_site1_2b5i_normal_mot_HHH_b2_06963_af2_000000094_0001_1_18_H_._HHH_b1_06981_af2_0001_0000100007_0000001_0_af2pred_0001_af2pred (protein)
chain: SSSSDLEQEILELYHEASKLLRQGNHEEAKKLLEEALELAEELGDEKLFKLIKHFLEMLESSSSS
B24: il2ra_site2_2erj_sap_23_mot_HHH_b1_08185_000000106_0001_41_55_H_._HHH_b1_03164_af2_0001_0000900069_0000001_0_0001 (protein)
chain: SSSSSSEYQEEIEELIEEARRVSKEEAAALLIDAAHLAARNRDDEIAKEVRELFAELFRRSSSSS

Biological target: il2ra, P01589
Assay: yeast display titration

Apparent Kd, inactive:
B1 no binding seen
B2 no binding seen
B3 no binding seen
B4 no binding seen
B5 no binding seen
B6 no binding seen
B7 no binding seen
B8 no binding seen
B9 no binding seen
B10 no binding seen
B11 no binding seen
B12 no binding seen
B13 no binding seen
B14 no binding seen
B15 no binding seen
B16 no binding seen
B17 no binding seen
B18 no binding seen
B19 no binding seen
B20 no binding seen
B21 no binding seen
B22 no binding seen
B23 no binding seen
B24 no binding seen

A portion from the list above, for reference:
Apparent Kd, inactive:
B19 no binding seen
B20 no binding seen
